Reference: patent publication US4925943A, “2-(2-aminobenzyl or 2-nitrobenzyl)-1,2,3,4-tetrahydroisoquinoline derivatives” (priority 1986, dated 1990)

tested on: α2 adrenergic receptors of rat cerebral cortex; assay: [3H] yohimbine binding, rat cerebral cortex (α2); design: species or system rat (male Wistar); settings: ratio of Ki, [3H] yohimbine / [3H] prazosine sites
Protocol: The preparation of the cerebral cortex homogenates is made starting from male Wistar rats, age 12 weeks. After decapitation, the brains are rapidly removed and dissected. The tissues are homogenized with the aid of an ultra-turrax in 50 mM of a pH 7.5 Tris-HCl buffer and centrifuged at 40,000 g for ten minutes. The centrifugate is dissolved in buffer and recentrifuged in the same way. All of the operations are carried out at a temperature less than 4° C. The final centrifugate is homogenized in the incubation buffer maintained in melting ice (tris-HCl 50 mM pH 7.5) so as to obtain a final dilution of the cortical tissue of 1/100 (by volume), which corresponds to about 0.5 mg of protein per ml.
These filters are rinsed 4 times with 5 ml of incubation buffer preserved in ice. The radioactivity retained on the filters is counted by liquid scintillation. The non-specific fixation of the radioactive ligand is evaluated in the presence of 10 μM phentolamine.
Starting from the inhibition curves for the specific fixation of a ligand to its receptor by increasing quantities of a non-radioactive product, the inhibition constant (Ki) of this product is determined.

Row | Structure (SMILES) | Ki α2 /Ki α1
1 | COc1cc(N)c(CN2CCc3ccccc3C2)cc1OC [ISK18, 2-(2-amino-4,5-dimethoxybenzyl)-1,2,3,4-tetrahydroisoquinoline] | 0,07
2 | COc1ccc2c(c1)CCN(Cc1cc(OC)c(OC)cc1N)C2 [ISK7, 2-(2-amino-4,5-dimethoxybenzyl)-6-methoxy-1,2,3,4-tetrahydroisoquinoline] | 0,06
3 | COc1cc(N)c(CN2CCc3cc(OC)c(OC)cc3C2)cc1OC [ISK4, 2-(2-amino-4,5-dimethoxybenzyl)-6,7-dimethoxy-1,2,3,4-tetrahydroisoquinoline] | 0,28
4 | COc1ccc2c(c1)CCN(Cc1ccc(Cl)cc1N)C2 [ISK31, 2-(2-amino-4-chlorobenzyl)-6-methoxy-1,2,3,4-tetrahydroisoquinoline] | 11,6
5 | COc1cc2c(cc1OC)CN(Cc1ccccc1N)CC2 [ISK17, 2-(2-aminobenzyl)-6,7-dimethoxy-1,2,3,4-tetrahydroisoquinoline] | 0,50
